For this assay, the target named is ANKRD24 ΔAla-HA (mouse) (UniProt Q80VM7). The assay is described as follows: co-IP; HEK293 cells transfected with both constructs; lysis in 50 mM Hepes, 150 mM NaCl, 1% Triton X-100, 1 mM EDTA, protease inhibitors; immunoprecipitation with anti-HA agarose beads; immunoblot. In general terms: In western blotting, separated proteins are transferred to a membrane and probed.

Protein sequences, listed by entry. Tags and fused reporters are not part of them. Lines headed by an entry give the natural chain unless they say otherwise; changes in a name come on top.
UniProt Q80VM7: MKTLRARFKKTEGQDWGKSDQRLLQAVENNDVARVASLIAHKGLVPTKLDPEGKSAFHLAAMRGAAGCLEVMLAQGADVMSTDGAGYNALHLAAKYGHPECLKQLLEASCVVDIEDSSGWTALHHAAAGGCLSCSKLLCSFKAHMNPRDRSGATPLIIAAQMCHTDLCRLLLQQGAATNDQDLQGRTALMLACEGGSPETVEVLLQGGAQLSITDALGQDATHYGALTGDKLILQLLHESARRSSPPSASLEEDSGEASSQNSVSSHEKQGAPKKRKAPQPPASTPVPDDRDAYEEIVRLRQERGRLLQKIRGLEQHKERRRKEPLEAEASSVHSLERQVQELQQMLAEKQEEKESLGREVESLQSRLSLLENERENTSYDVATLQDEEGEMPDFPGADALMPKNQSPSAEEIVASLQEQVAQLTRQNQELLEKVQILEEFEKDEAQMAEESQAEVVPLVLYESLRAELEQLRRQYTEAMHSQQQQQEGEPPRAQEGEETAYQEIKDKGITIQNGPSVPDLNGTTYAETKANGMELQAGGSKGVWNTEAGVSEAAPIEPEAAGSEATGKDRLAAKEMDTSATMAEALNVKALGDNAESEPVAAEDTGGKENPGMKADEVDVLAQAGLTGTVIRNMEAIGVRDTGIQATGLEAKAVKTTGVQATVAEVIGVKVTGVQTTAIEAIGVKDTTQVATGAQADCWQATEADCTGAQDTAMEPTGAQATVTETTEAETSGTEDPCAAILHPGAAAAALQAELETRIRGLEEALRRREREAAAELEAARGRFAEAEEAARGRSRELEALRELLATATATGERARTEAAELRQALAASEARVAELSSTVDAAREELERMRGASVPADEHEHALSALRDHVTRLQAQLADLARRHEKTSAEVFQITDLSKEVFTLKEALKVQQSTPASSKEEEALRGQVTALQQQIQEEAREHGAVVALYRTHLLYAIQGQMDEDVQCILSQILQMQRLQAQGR

No constants are given. Whether binding was seen depends on the method and setting. In cells and extracts the contact can be indirect. Binding can be weak; no strength is given. Where a sequence is shown, tags or fusion partners need not be part of it.

B1: GFP–TRIOBP-1 (protein, UniProt Q99KW3-1 1-580)
chain: MTPDLLNFKKGWMSILDEPGEWKKHWFVLTDSSLKYYRDSTAEEADELDGEIDLRSCTDVTEYAVQRNYGFQIHTKDAVYTLSAMTSGIRRNWIEALRKTVRPTSAPDVTKLSDCNKENTLHGYGTQKSSLKIGEQRTGSEVIGRGGPRKADGPRPSLDYVELSPLAPSSPQRMRTLSRSTPERPTKQEDLERDLAQRSEERRKWFESTDGRTPETPSGDGSRRGLGAPLTDDQQSRLSEEIEKKWQELEKLPLRENKRVPLTALLNQAHNDRRGPTSDSHEALEKEVQSLRAQLEAWRLRGEAPQNAPRLQEDSHIPPGYISQEACERSLAEMESSHQQVMEQLQRHHERELQRLQQEKEWLLAEETAATASAIEAMKKAYQEELSRELSKTRSLQQGPESLRKQHQLDMEALKQELQVLSERYSQKCLEIGALTRQAEEREHTLRRCQQEGQELLRHNQELHSHLSEEIDRLRSFIASQGTGNSCGRSNERSSCELEVLLRVKENELQYLKKEVQCLRDELQVIQKDKRFTGKYQDVYVELNHIKTRSEREIEQLKEHLRLAMAALQEKEAVRNSLAE
In the case of B1, the binding result is given as “binds”.

(Values after PMC8859912.)
